Data on 108 sequences can be found in PubChem BioAssay AID1347426 (Functional Genomics Laboratory (NCATS/FGL), 2020).

Screen size: about 31,000 sequences; about 1,400 (4.5%) were called active.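 How the source made its calls: active means median seed-adjusted z-score above 1 or below -1; inactive means the rest.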 This is one part of the list.

A short description of this assay: Novel Modifiers of Survival Motor Neuron (SMN) Protein: Gene Identification via Genome-wide siRNA Screen.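 Further: luminescence tracks full-length SMN protein made from the SMN2 reporter.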 Conditions: HEK293T SMN2-luciferase reporter, siRNA knockdown, 72 h; actives lie on both sides. The essentials:
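HEK293T cells stably expressing an SMN2 splicing/cDNA-luciferase reporter were reverse-transfected with a druggable-genome siRNA library and read by luminescence at 72 hours; hits defined by MAD score above 1.0 or below -1.0.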
(In general: Reporter assays use an easily measured gene product as a stand-in for the process of interest.)
Take CACUUGUGAUGAUAAGGUATT against ENPP2: the median seed-adjusted z-score is inactive: -0.305.

As for GGUAAAAGCUCAAAUGAAUTT against TUBB2B, the median seed-adjusted z-score was inactive: 0.935. To CAGUCACGCUUUAAUAAGATT against MST101 belongs inactive: -0.293.

Regarding AGAUGAAAUUCUCGGAGAATT against SSX6, the median seed-adjusted z-score was inactive: -0.493.

For the sequence UCACGCUGAUGCUCACUGATT against SPHK1, the median seed-adjusted z-score is inactive: -0.249. To GCACCUUGCAGGAUUGGAATT against PEAR1 belongs inactive: 0.071; to GGUAAAACCUGACCUGGUATT against DTX4, inactive: 0.409. Next, CGGGUGAAUUUAUUCGAAATT against FBXW7: inactive: 0; CAACAGGAGGAAGACUUUATT against HMMR: inactive: 0.389; GAUCCUAAUGGAAAAGGUATT against GRK7: inactive: 0.288. On to GAACUACAAGUAUCCUGAATT against EPB42, for which the median seed-adjusted z-score was inactive: -0.294. Consider GCCGUUCUCUUGCUGGACATT against JRK, for which the median seed-adjusted z-score is inactive: -0.624. Consider GAUUCUACUGUCUUACUAATT against HIATL1, for which the median seed-adjusted z-score is inactive: 0.327. Turning to AUACAGAUGUACAAGGAAATT against PTCH2, the median seed-adjusted z-score is inactive: -0.191. To CCCAACUACUGAGCUGAGATT against CD151 belongs inactive: -0.0305; to ACCUUAAACCACCAUUUAUTT against METTL2B, inactive: 0.769; to GCAUCGUCAAGGAUUGGAATT against ACTR1A, active: 1.28. Next, GGUGUUGAUUACAGAGUGATT against ARHGDIG: inactive: 0.227; CGAUCUCAUGGUUUCGGGATT against NCAM1: inactive: 0. As for CCACCGCUGUUGAAUACAATT against ZNF658, the median seed-adjusted z-score was inactive: 0.091. To ACUCUACCCUGACACCUCATT against ERAF belongs inactive: 0.0453; to GCAAAGAUCCCAUACGUCATT against SLC2A9, inactive: 0.216. To AGAUUAUAGAGGAAAUGUUTT against DUT belongs inactive: -0.0833; to GCACUUCUUUUACAUCCAUTT against XYLT2, inactive: 0.148; to GGAUCCAGGAUAACGGAGGTT against BCL2, inactive: 0. To GUGACGGCUUUAGACCUGATT against PRTFDC1 belongs inactive: 0.493; to GAACAGUGAUGACAUGUCUTT against CIB4, inactive: -0.638; to AGAACAUCCUGAUAGACCUTT against PIM2, inactive: 0.00597.

Consider GCUCCUUUCUUAUCAGAGATT against BLK, for which the median seed-adjusted z-score was inactive: -0.274. Next, GGAUGUCUAUGAGACCGGATT against ADAMTSL2: inactive: 0.806; GAGCAUUCCUUUUCGAUCATT against DHRS7B: inactive: 0.294.

Turning to GACCAUCUUUCACGAAUAUTT against MAP3K9, the median seed-adjusted z-score was inactive: -0.498. To GCACUGUACUCAGCUCUGUTT against SLC7A7 belongs inactive: 0.209; to GAGCAGAUCGAGAUCAAAATT against EVI5L, inactive: 0.0497. To AGAGGACUUCGCUCGCUUATT against LGI4 belongs inactive: -0.239; to GCUUAUUCUGUACAGUAAATT against GPR103, inactive: 0; to GAGGAUCACUGCAAAGGGATT against NECAP2, inactive: -0.539. Consider GGAUUUGGAAUGACGGGAATT against GABRG3, for which the median seed-adjusted z-score is inactive: 0. Next, GGAACAUCUUUAACCGAAUTT against AIFM1: inactive: 0.0499; CAUUCUGACCGUGAACAAUTT against CTRB1: inactive: -0.214.

For the sequence GACCAUGACUGAUGCUUAUTT against DUSP10, the median seed-adjusted z-score is inactive: 0.28.

Take ACAAGUACCAGGUCAACAATT against HRASLS3: the median seed-adjusted z-score was inactive: 0.085. Take CCAUAAUGAUAGAGUUUAATT against SLC24A4: the median seed-adjusted z-score is inactive: 0.0358. In the case of CGAACUUGUCUAAAUCAUATT against IRX1, the median seed-adjusted z-score was inactive: 0.673.

GAAUUUGCUCGCUACACUATT against GNAS: the median seed-adjusted z-score is inactive: -0.531. In the case of GUGUUGGAAUGAAGCUAGATT against NR5A2, the median seed-adjusted z-score was inactive: -0.275.

In the case of GGUCCAAGCUGUUGCUGUUTT against DARC, the median seed-adjusted z-score is inactive: 0.0814. On to CAUCCAUAAUGUACGUGAATT against ITGAE, for which the median seed-adjusted z-score was inactive: -0.0378.

As to GCUUUGACCGUGAUUCUUATT against EREG, the median seed-adjusted z-score is inactive: 0.29. For CGAUAACUGUAGUUGGAGATT against PRPSAP1, the median seed-adjusted z-score was inactive: 0.224. On to CCAAAAGAUCGUUCACUCATT against GABRR2, for which the median seed-adjusted z-score was inactive: 0.

Take GCAAGAGACAUAUCCACAATT against L1CAM: the median seed-adjusted z-score was inactive: 0. For the sequence GACAAUCGACCGAAAGCAATT against PPP4C, the median seed-adjusted z-score was active: 1.15. GCGAAUUCCUGAUAUAGUUTT against AGPS: the median seed-adjusted z-score was inactive: 0.289.

In the case of CAAUGGAUGUGCAAGCAUUTT against PRKAR2B, the median seed-adjusted z-score was inactive: -0.777.

For the sequence ACCUGGUGGUGUCAACUCATT against PTOV1, the median seed-adjusted z-score was inactive: 0.115. CUAUCGCUAUGGGAUAAAATT against CHD4: the median seed-adjusted z-score was inactive: 0.625.

Turning to GCUUAUGAUUGAUACACCUTT against ATP11B, the median seed-adjusted z-score was inactive: 0.0036. As to GAAUAGAGCCGCGUACAUATT against CLCA4, the median seed-adjusted z-score is inactive: 0.186. Take GGGUACAAGUUACCUAAUATT against TDRD6: the median seed-adjusted z-score was inactive: 0. Next, GACUAUGAGUUCAUGUGGATT against CKB: inactive: -0.236; CAGCUAAUUCUGAAACAUATT against HSD17B3: inactive: 0.734. Next, CUACUUUAAGUUCCUGUUUTT against CHST14: inactive: 0.228.

On to GCUAGAGGCAGUAAAUGGATT against HSPA12B, for which the median seed-adjusted z-score is inactive: -0.141.

Take CGUAUACUACAUCCUCAAATT against ZNF486: the median seed-adjusted z-score is inactive: 0.324.

ACAUCAAACUGACCGACUUTT against RPS6KB2: the median seed-adjusted z-score was inactive: 0. Next, AGCUGAGGCAGGUUGGUCATT against ACOT2: inactive: 0.578; CGAAGGUUAUCGUCACGGUTT against PCDHGA2: inactive: -0.8; ACACCAGCCUUGCACCUGATT against NCR1: inactive: -0.26. On to UGGGAACAAUAAACCAGUATT against ACR, for which the median seed-adjusted z-score is inactive: -0.655.

Regarding UGUCCGUCUUUGUCAAUAATT against CTSF, the median seed-adjusted z-score was inactive: 0.161.

As to CGACAAUAUUCCUUGAUGATT against CTGLF1, the median seed-adjusted z-score was inactive: 0.0231. Next, GCACAAUGUUAGAGGUGUUTT against PPIL3: inactive: 0.282; GCGGUUCUGGUAUAUCGAATT against LPGAT1: inactive: 0.625; CCAUCGAUGUCAACUAUGATT against PARP1: inactive: -0.0913. Next, CAACAACGGCUUUUGGGAATT against DUSP21: inactive: -0.0724.

As for GAUCUGUCUUGAUAACGAUTT against CENPC1, the median seed-adjusted z-score is inactive: 0. To GCUUAUGAACCGUUACGUATT against RAB9B belongs inactive: -0.0301; to GGGCAGACAUAUACACGAATT against ADSL, inactive: 0. Next, CAUUAAAGGUUUACCCAAUTT against IDH1: inactive: 0.421; GUACCCUGGAGGAAAGCGATT against GNRH2: active: 1.13; GGAAGACAAUUGCUAAGGUTT against TRO: active: 2.04. CGUUAUCUGUGGGAGCGAUTT against GTF3C3: the median seed-adjusted z-score is inactive: 0.21. To CACUGGAUCUGAAGUAUGATT against IL28RA belongs inactive: 0; to CCAUCAGUACAUAUCCGAATT against ABCA8, inactive: -0.666. Next, CCGGGAACGAAAUAAACUATT against FOSB: inactive: 0.266. Next, AGACUCACCUAGAGCUAAATT against AIF1: inactive: -0.0293; GCAAUGAAUUACGAAGGCATT against NPM1: inactive: 0.141.

As for CGAGAGUAAUUUGAAGAAUTT against SIGMAR1, the median seed-adjusted z-score is active: -1.4.

For GCCUAUGAGUACUUCACCATT against BAK1, the median seed-adjusted z-score was inactive: 0.0419. Turning to CCACAAAGACCGUCGCUUUTT against RHOBTB2, the median seed-adjusted z-score is inactive: -0.139.

In the case of GUCUAUGCCUUCAUGAUCATT against SLC45A3, the median seed-adjusted z-score was inactive: -0.0257. Next, CCAGCGAAACCUCACCUAATT against MYT1: inactive: -0.292. To CCUCCCGAAUGGUUCAGAATT against MLLT1 belongs inactive: -0.086.

For GAAUCCGAAGGGAAAGGAATT against FOS, the median seed-adjusted z-score was inactive: 0.343. Next, GACCUAAACUGCAAGGAGATT against SIPA1L3: inactive: 0; CGCAGUACAUUGACGGGCATT against CAMK2B: inactive: 0.0305; AGUUUGACCUGUUUCCUAATT against DMRTA2: inactive: 0.252.

For GGAGAGUAUUGGAAGGACATT against PAAF1, the median seed-adjusted z-score was inactive: -0.422.

Consider CGUGUUCAGUGGAAUCACATT against NPC1, for which the median seed-adjusted z-score was inactive: -0.195. Consider CAACAGUGGUCCGAAAAGATT against SNX1, for which the median seed-adjusted z-score was inactive: 0.0261. Turning to GCAAGAUAUCAACCAUGUATT against 1-Mar, the median seed-adjusted z-score is inactive: 0. To AGGGCACAUUCACCAGUGATT against GCG belongs active: -1.18; to CAGUUAAACCAGCUACUCATT against DBI, inactive: 0.0661; to GGGCUGUAUCUCCAUCUAATT against MAP7, inactive: -0.22.

Take GGACUACUAUAGCAGAUCATT against SFRS10: the median seed-adjusted z-score is inactive: -0.071. To GAUCCAGGCUUUCAACGUATT against ATP6AP1 belongs inactive: 0.358. Next, UGAACGGAGUUAUUCAUGATT against GLT6D1: inactive: 0.145.
